The text below walks through data of publication PMC7016946.

Amino acid sequences for entries named in this document (tags omitted).
UniProt Q09472: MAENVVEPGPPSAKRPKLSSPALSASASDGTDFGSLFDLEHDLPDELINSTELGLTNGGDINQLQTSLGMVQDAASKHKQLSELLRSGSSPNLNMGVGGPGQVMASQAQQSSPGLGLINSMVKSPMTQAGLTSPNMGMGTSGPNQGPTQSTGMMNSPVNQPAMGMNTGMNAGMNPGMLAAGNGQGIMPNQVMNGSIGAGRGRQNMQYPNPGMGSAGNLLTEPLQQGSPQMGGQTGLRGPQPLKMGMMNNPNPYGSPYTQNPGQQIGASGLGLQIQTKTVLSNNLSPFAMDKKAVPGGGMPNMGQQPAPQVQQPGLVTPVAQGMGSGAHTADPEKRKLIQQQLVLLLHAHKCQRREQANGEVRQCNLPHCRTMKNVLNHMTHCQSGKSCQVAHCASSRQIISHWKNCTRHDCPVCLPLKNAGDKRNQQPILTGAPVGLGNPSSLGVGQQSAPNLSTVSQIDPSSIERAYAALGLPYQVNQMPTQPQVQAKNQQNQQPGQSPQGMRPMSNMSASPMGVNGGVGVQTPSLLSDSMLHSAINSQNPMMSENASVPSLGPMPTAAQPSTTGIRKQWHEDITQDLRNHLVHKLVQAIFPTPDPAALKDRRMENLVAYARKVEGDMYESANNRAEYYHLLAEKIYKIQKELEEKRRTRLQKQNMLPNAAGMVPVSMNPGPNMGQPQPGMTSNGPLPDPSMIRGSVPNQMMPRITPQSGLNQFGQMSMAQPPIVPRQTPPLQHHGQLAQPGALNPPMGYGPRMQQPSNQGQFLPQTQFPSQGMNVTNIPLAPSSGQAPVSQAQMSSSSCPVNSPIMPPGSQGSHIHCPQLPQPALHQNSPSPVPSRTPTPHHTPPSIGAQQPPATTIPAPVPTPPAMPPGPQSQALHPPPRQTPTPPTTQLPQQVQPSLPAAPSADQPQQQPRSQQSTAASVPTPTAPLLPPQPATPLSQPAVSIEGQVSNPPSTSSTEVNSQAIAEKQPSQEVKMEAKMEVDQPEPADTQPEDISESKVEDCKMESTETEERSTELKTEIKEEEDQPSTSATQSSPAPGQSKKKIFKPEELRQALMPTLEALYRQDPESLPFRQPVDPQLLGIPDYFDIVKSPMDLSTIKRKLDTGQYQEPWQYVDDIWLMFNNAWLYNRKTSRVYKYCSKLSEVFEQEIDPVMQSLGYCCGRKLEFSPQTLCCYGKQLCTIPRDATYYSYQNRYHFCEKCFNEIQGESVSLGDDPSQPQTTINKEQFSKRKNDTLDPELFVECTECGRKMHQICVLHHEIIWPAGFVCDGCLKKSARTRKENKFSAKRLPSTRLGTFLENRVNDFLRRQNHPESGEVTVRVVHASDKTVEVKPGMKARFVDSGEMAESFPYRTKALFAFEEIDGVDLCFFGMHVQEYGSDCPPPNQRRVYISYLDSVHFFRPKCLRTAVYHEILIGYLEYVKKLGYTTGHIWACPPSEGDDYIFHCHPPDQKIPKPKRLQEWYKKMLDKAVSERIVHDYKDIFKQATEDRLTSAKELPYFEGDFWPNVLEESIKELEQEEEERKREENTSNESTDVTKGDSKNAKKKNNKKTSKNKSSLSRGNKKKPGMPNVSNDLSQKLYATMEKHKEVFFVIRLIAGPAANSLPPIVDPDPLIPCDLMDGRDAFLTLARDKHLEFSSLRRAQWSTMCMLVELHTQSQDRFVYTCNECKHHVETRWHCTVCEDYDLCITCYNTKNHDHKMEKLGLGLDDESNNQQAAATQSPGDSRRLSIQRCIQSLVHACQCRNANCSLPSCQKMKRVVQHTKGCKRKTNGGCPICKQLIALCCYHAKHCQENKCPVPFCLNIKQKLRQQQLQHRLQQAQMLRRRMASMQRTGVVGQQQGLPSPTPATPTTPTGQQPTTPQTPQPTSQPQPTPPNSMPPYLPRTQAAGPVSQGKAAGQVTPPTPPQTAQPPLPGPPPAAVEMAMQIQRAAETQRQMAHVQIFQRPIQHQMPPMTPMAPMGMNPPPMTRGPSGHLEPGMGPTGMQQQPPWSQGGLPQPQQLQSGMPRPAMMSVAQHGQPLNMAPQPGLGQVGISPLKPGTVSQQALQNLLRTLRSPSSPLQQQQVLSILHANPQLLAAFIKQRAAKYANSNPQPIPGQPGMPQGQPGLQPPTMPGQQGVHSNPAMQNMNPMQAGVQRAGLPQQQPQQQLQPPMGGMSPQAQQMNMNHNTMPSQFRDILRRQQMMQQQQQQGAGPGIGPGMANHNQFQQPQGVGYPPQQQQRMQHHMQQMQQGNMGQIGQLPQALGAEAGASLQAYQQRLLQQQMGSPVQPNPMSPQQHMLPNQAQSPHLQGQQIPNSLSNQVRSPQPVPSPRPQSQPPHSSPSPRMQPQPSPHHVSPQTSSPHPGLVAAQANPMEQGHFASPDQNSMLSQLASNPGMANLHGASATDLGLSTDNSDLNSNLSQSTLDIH
UniProt Q9R1E0: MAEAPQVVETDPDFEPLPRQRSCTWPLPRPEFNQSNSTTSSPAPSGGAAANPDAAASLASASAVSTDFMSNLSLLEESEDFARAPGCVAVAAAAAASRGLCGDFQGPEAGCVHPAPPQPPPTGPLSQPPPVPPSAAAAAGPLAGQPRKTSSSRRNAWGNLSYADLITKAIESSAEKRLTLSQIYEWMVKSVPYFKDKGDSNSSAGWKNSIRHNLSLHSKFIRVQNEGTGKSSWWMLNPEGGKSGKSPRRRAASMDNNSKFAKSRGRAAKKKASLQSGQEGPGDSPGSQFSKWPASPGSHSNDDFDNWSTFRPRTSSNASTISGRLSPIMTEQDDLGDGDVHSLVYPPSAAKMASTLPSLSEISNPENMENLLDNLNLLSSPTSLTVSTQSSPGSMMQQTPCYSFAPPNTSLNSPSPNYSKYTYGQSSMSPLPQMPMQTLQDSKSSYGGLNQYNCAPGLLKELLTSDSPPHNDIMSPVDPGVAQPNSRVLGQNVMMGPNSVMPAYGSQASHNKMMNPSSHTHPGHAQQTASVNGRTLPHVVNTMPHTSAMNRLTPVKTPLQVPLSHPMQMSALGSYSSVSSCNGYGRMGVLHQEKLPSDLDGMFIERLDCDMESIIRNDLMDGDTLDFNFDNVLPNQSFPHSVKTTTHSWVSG

Test [1] deals with HA-tagged full-length p300 acetyltransferase (UniProt Q09472). Description: co-IP; E1A + Ras cells transfected with CMV-p300-HA, treated with NaBut for 24 h; extracts immunoprecipitated with anti-HA antibody, immunoblot with FoxO1 antibody.
Test [2] shares this target. The test can be described thus: condition: only untreated control cells (without NaBut), in which E1A is expressed; co-IP; E1A + Ras cells transfected with CMV-p300-HA, untreated control cells (no NaBut); extracts immunoprecipitated with anti-HA antibody, immunoblot with FoxO1 antibody.

No constants are given. Whether binding was seen depends on the method and setting. Binding seen in cells or lysates may run through a third protein. Some entries that bind do so weakly or less than the wild type.

Take “endogenous FoxO1 (from UniProt Q9R1E0 1-652)”: the figures for the binding entry in test [1] and in test [2] were “binds” and “no binding”, respectively.
